The experiment deals with histidine-tagged TlpD (TlpD-Hisx6) (H. pylori) (UniProt B5Z6X0). The experiment can be described thus: affinity purification with mass spectrometry; TlpD-Hisx6 pulled down on Talon (Cobalt2+-coupled) beads from cleared lysates of plate-grown H. pylori N6 tlpD (TlpD-Hisx6); bands >82 kDa seen only against the tlpD mutant control were cut from Coomassie-stained 12% SDS gels and analysed by MS/MS; two independent experiments.

Sequences of proteins named here, by UniProt entry; tags and fusion partners are left off.
UniProt B5Z6X0: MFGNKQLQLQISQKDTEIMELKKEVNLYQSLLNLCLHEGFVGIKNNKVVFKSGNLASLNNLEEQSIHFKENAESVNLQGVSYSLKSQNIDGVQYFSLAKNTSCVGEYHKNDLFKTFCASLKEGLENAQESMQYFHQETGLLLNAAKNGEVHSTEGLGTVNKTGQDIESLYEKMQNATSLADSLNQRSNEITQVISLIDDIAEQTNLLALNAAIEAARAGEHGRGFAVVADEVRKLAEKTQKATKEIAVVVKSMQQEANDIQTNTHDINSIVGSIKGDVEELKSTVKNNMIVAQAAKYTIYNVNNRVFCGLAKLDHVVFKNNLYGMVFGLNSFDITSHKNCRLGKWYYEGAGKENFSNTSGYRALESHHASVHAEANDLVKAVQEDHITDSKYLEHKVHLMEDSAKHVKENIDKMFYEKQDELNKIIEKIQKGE

Experimental findings from publication PMC4820699 are described below.

These are yes or no findings as the source states them, for the method shown. Binding seen in cells or lysates may run through a third protein. A yes stands for co-enrichment or nearness to the bait. Other partners may have been found.

B1: isoleucyl-tRNA synthetase IleS (enzyme, UniProt P56456 1-920)
chain: MEEYKDTLNLNTTTFSMKGNLSVNEPKTYAKWQEQQAFKRMQARKDNHGDFTLHDGPPYANGHLHLGHALNKILKDIVVKREYFKGKKIYYTPGWDCHGLPIEQQILERLEKEKTSLENPTLFREKCRDHAKKFLEIQKNEFLQLGVLGDFEDPYKTMDFKFEASIYRALVEVAKKGLLKERHKPIYWSYACESALAEAEVEYKMKKSPSIFVAFGLKKESLEKLKVKKASLVIWTTTPWTLYANVAIALKKDAVYALTQKGYLVAKALHEKLAALGVVDNEITHEFNSNDLEYLVATNPLNQRDSLVALGEHVGLEDGTGAVHTAPGHGEEDYYLGLRYNLEVLMSVDEKGCYDEGIIHNQLLDESYLGEHVFKAQKRIIEQLGDSLLLEQEIEHSYPHCWRTHKPVIYRATTQWFILMDEPFIQNDGSQKTLREVALDAIEKVEFVPSSGKNRLKTMIENRPDWCLSRQRKWGVPLAFFIDKRTNKPCFESEVLEHVANLFEKKGCDVWWEYSVKDLLPPSYQEDAKHYEKIMHILDVWFDSGSTFKAVLEDYHGEKGQSPSDVILEGSDQHRGWFQSSLLIGCVLNNQAPFKKVITHGFIVDEKGEKMSKSKGNVVSLDKLLKTHGSDVVRLWVAFNDYQNDLRVSQTFFTQTEQHYKKFRNTLKFLLANFSDMDLKNLERPHNFSPLDHFMLETLETISAGVNSAFEEHDFVKGLNILMAFVTNELSGIYLDACKDSLYCDSKNNEKRQAIQMVLLATASKLCYFLAPILTHTIEEVLEHSQALRIFLQAKDVFDLKDISVSEKLHLKEFKKPENFEAVLALRSAFNEELDRLKKEGVIKNSLECAIEVKEKALDENLVEELLMVSFVGIAKEKLSETPAFTLFKAPFYKCPRCWRFKSELENTPCKRCEQVLKER
Consider B1, for which the binding result is listed as “binds”.

B2: aconitate hydratase AcnB (enzyme, UniProt P56418 1-852)
chain: MKDFLEDYKKSVSERGSEGIPPLPLNAKQVQAVVEILTKDPTNAAFAKELLIHRVSPGVDEGAKVKAEFLAKLSQKKLECVHISALEATTLLGTMLGGYNVEPLIMGLESQDKNIAKESAKALKTTLLVYGSFDKIAAMSKTNALAKEVLESWANAEWFLNKEPLNECIEACVFKIDGETNTDDLSPASDAFTRSDIPLHAKAMLKNRIENYEQRIKAIKTKGVPVAYVGDVVGTGSSRKSATNSIMWHFGKDIPFVPNKRSGGIVIGGVIAPIFFATCEDSGALPIVADVKDLKEGDLIKIYPYKGEITLNDKVVSTFKLEPETLLDEVRASGRIPLIIGRGLTNKARKFLGLGESEAFKKPSAPKSDAKGYTLAQKIVGHACGVKGILPGTYCEPKVTTVGSQDTTGAMTRDEVKELASLKFDAPFVLQSFCHTAAYPKPSDVSLHATLPGFITQRGGVALHPGDGVIHTWLNRMGLPDTLGTGGDSHTRFPLGISFPAGSGLVAFAAVTGTMPLNMPESVLVRFKGEMNPGITLRDLVNAIPYYAIKKGLLTVEKKGKINVFNGRILEIEGLPDIKMEQAFELSDASAERSAAACVVRLNKEPMIEYLKSNIKLIDEMIASGYEDKETLKKRRDAMQAWVDNPVLLEPDSNAQYAAVIEIDVAEITEPILACPNDPDDVATLSEVLADTTGKRPHAIDEVFIGSCMTNIGHFRAFGEIVKNAPPSQARLWVVPPSKMDEQELINEGYYAIFGAAGARTEVPGCSLCMGNQARVRDNAVVFSTSTRNFDNRMGRGAKVYLGSAELGAACALLGRIPTKEEYMNLVSEKLESQKDKIYRYMNFNLMENFRL
Regarding B2, the binding result is given as “binds”.
